# Where a name gives a salt, the structure may show the parent alone. What follows is the remainder of the data, with few or none of the lowest values.
# Test system: U2OS
# Assay: nuclei count (viability) relative to DMSO (% of DMSO); higher = more viable cells
# Details: 10 µM; 24 h
# Procedure: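 Primary image-based screen in U2OS cells: compounds at 10 uM for 24 h, then a 1 h o-propargyl-puromycin (OPP) pulse, click labelling, and high-throughput microscopy. Mean cytoplasmic OPP intensity and nuclei count were normalised to DMSO wells within each plate (DMSO = 100) and averaged over triplicate plates.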
row,SMILES,nuclei count
1,O=C1Nc2ccc(-c3cccnc3)cc2/C1=C/c1ccc[nH]1 [JAK3 Inhibitor VI],44.4
2,O=C1NC(=O)c2c1c(-c1ccccc1)cc1[nH]c3ccc(O)cc3c21,46.3
3,Cc1ccccc1-n1c(Cn2nc(-c3cccc(O)c3)c3c(N)ncnc32)nc2cccc(C)c2c1=O,103
4,CN1C2CCC1CC(OC(=O)C(O)c1ccccc1)C2 (stereo unspecified) [Homatropine Bromide],96
5,Cc1nc2c(-c3cnc(N)nc3)nc(N3CCOCC3)nc2n1C(C)C,76.7
6,"CN1[C@@H]2CC[C@H]1C[C@@H](OC(=O)C(O)c1ccccc1)C2 (mixture of isomers) [Homatropine hydrobromide (R,S)]",91.5

# — the supplement of paper PMC8183993
